The experiment concerns the target T1, V5-tagged active WNT11 (UniProt O96014).
T1 sequence: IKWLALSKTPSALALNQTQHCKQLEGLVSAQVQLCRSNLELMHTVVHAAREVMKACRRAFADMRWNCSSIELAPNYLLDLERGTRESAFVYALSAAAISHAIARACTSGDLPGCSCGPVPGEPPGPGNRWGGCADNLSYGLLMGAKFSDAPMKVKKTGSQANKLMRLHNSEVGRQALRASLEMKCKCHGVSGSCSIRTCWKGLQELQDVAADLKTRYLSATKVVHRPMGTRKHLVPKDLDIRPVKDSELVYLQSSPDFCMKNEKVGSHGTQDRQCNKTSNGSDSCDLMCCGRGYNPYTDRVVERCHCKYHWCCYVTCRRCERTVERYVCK
The experiment can be described thus: co-IP.

Protein sequences, listed by entry. Tags and fused reporters are not part of them. Lines headed by an entry give the natural chain unless they say otherwise; changes in a name come on top.
UniProt Q01974: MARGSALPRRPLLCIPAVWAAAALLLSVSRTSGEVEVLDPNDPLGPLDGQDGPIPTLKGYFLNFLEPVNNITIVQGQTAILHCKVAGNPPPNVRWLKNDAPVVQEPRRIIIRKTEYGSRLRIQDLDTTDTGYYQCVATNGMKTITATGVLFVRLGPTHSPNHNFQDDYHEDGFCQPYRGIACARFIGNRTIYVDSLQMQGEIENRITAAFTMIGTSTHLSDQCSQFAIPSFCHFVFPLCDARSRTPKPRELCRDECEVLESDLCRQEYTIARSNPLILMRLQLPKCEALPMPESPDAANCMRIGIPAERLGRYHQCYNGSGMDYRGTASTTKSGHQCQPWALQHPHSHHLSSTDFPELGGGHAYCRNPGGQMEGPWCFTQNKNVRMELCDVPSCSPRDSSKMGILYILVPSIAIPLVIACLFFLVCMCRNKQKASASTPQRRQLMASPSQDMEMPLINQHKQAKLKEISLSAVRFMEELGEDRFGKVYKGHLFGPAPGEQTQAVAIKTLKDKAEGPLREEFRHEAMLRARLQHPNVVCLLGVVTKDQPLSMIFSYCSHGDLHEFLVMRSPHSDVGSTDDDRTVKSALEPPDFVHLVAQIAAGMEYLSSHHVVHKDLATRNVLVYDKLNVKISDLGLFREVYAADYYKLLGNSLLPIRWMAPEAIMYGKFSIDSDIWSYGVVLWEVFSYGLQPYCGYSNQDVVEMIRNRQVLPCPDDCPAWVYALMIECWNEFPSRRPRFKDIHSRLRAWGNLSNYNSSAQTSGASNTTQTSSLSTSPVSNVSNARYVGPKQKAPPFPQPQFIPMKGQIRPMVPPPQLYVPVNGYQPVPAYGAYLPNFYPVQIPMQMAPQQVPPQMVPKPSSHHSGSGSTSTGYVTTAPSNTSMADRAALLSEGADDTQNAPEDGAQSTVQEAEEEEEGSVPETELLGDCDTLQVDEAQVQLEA

Results are given in words; binding and its absence hold for the method and conditions named. In cells and extracts the contact can be indirect. Tags and fused reporters may be left off the sequences shown.

Experimental findings from publication doi:10.1101/2020.12.18.423402 are described below.

For “ROR2-ΔΔ (amino acids 304-943) (from UniProt Q01974) (domain or fragment)”, the binding result is on record as “no binding”.
